Test results reported in publication doi:10.1101/2024.10.11.617944.
Results are given in words; binding and its absence hold for the method and conditions named. For part of these data: In cells and extracts the contact can be indirect. Some results given as binding are weak or reduced against the parent protein; the word gives no strength. Sequences can lack the tags named with a protein.

Columns and labels:
[1] = molecular target: T1, ABI5-Binding Protein 3 (AFP3), yeast two-hybrid fusions (Arabidopsis thaliana) (UniProt Q94F39); experiment: two-hybrid
T1 sequence: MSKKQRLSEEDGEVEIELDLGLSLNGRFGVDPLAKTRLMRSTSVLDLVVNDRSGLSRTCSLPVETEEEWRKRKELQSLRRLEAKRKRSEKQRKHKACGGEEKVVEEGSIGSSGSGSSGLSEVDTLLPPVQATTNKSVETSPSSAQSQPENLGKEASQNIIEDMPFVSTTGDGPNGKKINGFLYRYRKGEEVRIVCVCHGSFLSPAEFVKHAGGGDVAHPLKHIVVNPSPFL

[2] = molecular target: T2, ABI5-Binding Protein 1 (AFP1), yeast two-hybrid fusions (Arabidopsis thaliana) (UniProt Q9LQ98); experiment: two-hybrid
T2 sequence: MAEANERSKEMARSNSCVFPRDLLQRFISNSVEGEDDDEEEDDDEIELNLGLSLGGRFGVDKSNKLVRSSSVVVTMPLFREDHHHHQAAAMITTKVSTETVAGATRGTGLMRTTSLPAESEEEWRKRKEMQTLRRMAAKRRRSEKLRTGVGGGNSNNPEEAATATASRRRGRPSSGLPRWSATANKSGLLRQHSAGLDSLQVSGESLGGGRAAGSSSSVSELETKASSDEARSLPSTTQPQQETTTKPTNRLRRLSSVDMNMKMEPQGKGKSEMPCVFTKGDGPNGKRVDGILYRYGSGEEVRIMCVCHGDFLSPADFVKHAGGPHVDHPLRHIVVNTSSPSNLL

[3] = molecular target: T3, ABI5-Binding Protein 4 (AFP4), yeast two-hybrid fusions (Arabidopsis thaliana) (UniProt Q9S7Z2); experiment: two-hybrid
T3 sequence: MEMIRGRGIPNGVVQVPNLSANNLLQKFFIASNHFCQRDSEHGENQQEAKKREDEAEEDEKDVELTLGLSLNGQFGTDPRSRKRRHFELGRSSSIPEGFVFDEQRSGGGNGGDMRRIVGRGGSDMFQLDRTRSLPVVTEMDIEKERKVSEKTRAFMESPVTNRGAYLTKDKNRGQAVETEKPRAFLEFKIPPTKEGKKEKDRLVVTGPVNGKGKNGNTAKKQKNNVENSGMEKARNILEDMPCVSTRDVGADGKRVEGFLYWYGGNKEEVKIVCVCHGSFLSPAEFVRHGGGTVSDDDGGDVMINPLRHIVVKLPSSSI

[4] = molecular target: T4, ABI5-Binding Protein 2 (AFP2), yeast two-hybrid fusions (Arabidopsis thaliana) (UniProt Q9LMX5); experiment: two-hybrid
T4 sequence: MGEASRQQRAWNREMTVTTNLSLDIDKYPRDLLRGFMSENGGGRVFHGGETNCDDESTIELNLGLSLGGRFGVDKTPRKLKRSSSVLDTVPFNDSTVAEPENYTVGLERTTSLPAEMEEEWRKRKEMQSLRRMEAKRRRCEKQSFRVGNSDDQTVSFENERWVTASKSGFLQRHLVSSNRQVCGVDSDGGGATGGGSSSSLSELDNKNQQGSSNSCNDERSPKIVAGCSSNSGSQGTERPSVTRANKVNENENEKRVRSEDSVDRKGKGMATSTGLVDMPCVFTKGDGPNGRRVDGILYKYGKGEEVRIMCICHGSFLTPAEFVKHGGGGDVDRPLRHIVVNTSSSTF

[5] = molecular target: T5, GRF3 (14-3-3 psi), split YFP fusion (Arabidopsis thaliana) (UniProt P42644); experiment: split reporter
T5 sequence: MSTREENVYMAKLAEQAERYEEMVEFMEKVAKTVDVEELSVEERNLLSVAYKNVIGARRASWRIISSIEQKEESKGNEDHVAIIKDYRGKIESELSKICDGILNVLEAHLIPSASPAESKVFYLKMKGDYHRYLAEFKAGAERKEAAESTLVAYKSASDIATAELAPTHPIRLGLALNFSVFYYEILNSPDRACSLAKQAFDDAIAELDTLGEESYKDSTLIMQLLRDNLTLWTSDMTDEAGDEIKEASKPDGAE

[6] = molecular target: AHG1, split YFP fusion (Arabidopsis thaliana) (UniProt Q9FLI3); experiment: split reporter
[7] = molecular target: T6, GRF4 (14-3-3 phi), split YFP fusions (Arabidopsis thaliana) (UniProt P46077); experiment: split reporter
T6 sequence: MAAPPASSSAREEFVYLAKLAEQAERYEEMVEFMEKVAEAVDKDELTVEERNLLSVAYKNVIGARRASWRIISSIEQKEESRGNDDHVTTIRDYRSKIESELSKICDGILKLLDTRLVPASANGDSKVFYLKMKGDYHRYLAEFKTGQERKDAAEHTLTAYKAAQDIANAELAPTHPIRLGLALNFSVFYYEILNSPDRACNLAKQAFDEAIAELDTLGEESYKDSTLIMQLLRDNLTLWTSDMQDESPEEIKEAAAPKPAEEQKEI

[8] = molecular target: T7, GRF7 (14-3-3 nu), split YFP fusion (Arabidopsis thaliana) (UniProt Q96300); experiment: split reporter
T7 sequence: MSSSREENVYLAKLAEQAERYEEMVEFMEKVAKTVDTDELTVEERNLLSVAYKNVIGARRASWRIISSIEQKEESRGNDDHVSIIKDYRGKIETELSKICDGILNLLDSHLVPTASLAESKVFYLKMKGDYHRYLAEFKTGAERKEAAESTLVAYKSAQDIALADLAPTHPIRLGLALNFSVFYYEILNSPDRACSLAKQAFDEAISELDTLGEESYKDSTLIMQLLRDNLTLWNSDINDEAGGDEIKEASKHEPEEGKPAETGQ

[9] = molecular target: T8, SnRK2.6, split YFP fusion (Arabidopsis thaliana) (UniProt Q940H6); experiment: split reporter
T8 sequence: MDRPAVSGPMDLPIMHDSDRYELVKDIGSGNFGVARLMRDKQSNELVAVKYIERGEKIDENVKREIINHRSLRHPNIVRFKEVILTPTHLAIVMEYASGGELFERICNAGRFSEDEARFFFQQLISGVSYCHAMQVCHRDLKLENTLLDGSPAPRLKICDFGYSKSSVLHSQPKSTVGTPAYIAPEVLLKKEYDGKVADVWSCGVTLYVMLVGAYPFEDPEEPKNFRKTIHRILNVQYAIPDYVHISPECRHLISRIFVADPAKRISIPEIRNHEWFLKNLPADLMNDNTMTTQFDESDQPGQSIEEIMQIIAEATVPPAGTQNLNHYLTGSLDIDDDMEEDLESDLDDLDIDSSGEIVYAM

Measured: binding

B1: ABA-… …ON 1 (AHG1), AD fusion (enzyme, UniProt Q9FLI3 1-416)
chain: MTEIYRTISTGRGDDVSPTKCRERRRRRIEMRRQAAVFGEPSSSRNRDRTDMEVYSSFDVPLRKQARRSEIGGLPADIGGFLAPPAASSCQKSEAPVWKGEETEDEPLYGIVSVMGRSRKMEDSVTVKPNLCKPEVNRQRPVHFFAVYDGHGGSQVSTLCSTTMHTFVKEELEQNLEEEEEGSENDVVERKWRGVMKRSFKRMDEMATSTCVCGTSVPLCNCDPREAAISGSTAVTAVLTHDHIIVANTGDSRAVLCRNGMAIPLSNDHKPDRPDERARIEAAGGRVLVVDGARVEGILATSRAIGDRYLKPMVAWEPEVTFMRRESGDECLVLASDGLWDVLSSQLACDIARFCLREETPSSLDLNRMAQEDDNDGEQNPSRSVLAATLLTRLALGRQSSDNISVVVIDLKNSSQ
binds: [1] | [2] | [3] | [4]

B2: GRF4 (14-3-3 phi), split YFP fusions (protein, UniProt P46077 1-267)
chain: MAAPPASSSAREEFVYLAKLAEQAERYEEMVEFMEKVAEAVDKDELTVEERNLLSVAYKNVIGARRASWRIISSIEQKEESRGNDDHVTTIRDYRSKIESELSKICDGILKLLDTRLVPASANGDSKVFYLKMKGDYHRYLAEFKTGQERKDAAEHTLTAYKAAQDIANAELAPTHPIRLGLALNFSVFYYEILNSPDRACNLAKQAFDEAIAELDTLGEESYKDSTLIMQLLRDNLTLWTSDMQDESPEEIKEAAAPKPAEEQKEI
binds weakly: [6]
binds: [5] | [7] | [8] | [9]
